The other results are listed elsewhere or left out.

Protein sequences, listed by entry. Tags and fused reporters are not part of them.
UniProt Q0JBA9, entry or part of it: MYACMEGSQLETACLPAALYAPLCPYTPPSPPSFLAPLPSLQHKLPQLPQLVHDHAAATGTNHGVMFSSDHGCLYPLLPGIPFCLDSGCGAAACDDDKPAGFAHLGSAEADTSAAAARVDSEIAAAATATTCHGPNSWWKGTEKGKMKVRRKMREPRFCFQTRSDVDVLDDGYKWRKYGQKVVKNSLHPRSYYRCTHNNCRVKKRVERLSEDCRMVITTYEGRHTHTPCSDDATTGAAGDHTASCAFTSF

The assay has as its target OsWRKY34 (Oryza sativa, UniProt Q0JBA9 1-250). Briefly: protein-binding microarray (RPBM); PBS, 2% BSA, 51.3 ng/ul salmon testes DNA, 50 uM zinc acetate, 200 nM TF, 25 C, 1 h; high values mean tight binding. The conditions noted are these: protein: recombinant; tags: N-terminal polyhistidine and DsRed monomer fusion (pET32a); label: CyDye5-dUTP incorporated in the synthesized complementary strand; 3' TTTTT single-stranded linker to array surface; dsDNA, one strand shown. The method in brief:
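Polyhistidine-tagged DsRed fusions of transcription factors, joined at the N-terminus, were expressed in E. coli BL21-CodonPlus and isolated on Ni–NTA. They were incubated at 200 nM for 1 h at 25 °C on a custom Agilent array, double-stranded and BSA-blocked, in PBS with 2% BSA, salmon testes DNA and 50 µM zinc acetate. The binding signal is per-feature fluorescence intensity (arbitrary units) read on an Axon 4000B scanner after washing.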
As to “ACTTTTGCAGAACTTGATCTTCATTTTTCTTGTCGTATTTCGGAGTCACCTAGTGCAG”, the binding signal was 12300 fluorescence intensity (a.u.).
As for “CTCCAAGTTGTGCTGATAAGTGGGTCTGGATATTTGCCATCGGAGTCACCTAGTGCAG”, the binding signal was 8380 fluorescence intensity (a.u.).
Consider “TTTGTCTACTTAATTTGTTCTTCTTCGCGACTTTGACCGTCGGAGTCACCTAGTGCAG”, for which the binding signal was 10700 fluorescence intensity (a.u.).
As for “TTTGCTATTATACCGATCGTTTCCTTATTTACAATATTATCGGAGTCACCTAGTGCAG”, the binding signal was 10400 fluorescence intensity (a.u.).
As to “CCAACGTTTGACTGTCTGTCTTATATGAAATTTTTTTATACGGAGTCACCTAGTGCAG”, the binding signal was 10900 fluorescence intensity (a.u.).
Consider “CCCGCCGCATTCGCTCACCGGTGAGCATCCTAATCCATCCCGGAGTCACCTAGTGCAG”, for which the binding signal was 10200 fluorescence intensity (a.u.).
The value for “CAGTTGTTTCGCGTGTTCTTTGTGGAGTGGGCAGCTTCCCCGGAGTCACCTAGTGCAG” was 8640 fluorescence intensity (a.u.).
The figure for “AATTCCACCACCTGTAGCAGCAGCGATCGCGTGTGTTCTTCGGAGTCACCTAGTGCAG” is 8920 fluorescence intensity (a.u.).
The figure for “ACACAGGCACGGAGGTGGCACACTCCTCTCGCCTCGCTTTCGGAGTCACCTAGTGCAG” is 8250 fluorescence intensity (a.u.).
On to “CATGCGCCGCCTACCCACCTCAGCATCCGGCGTTGTCTCCCGGAGTCACCTAGTGCAG”, for which the binding signal is 8810 fluorescence intensity (a.u.).
For “TTTAATTCATTTTCTAGATTCTATAACCACATCTTTTTAGCGGAGTCACCTAGTGCAG”, the binding signal is 9640 fluorescence intensity (a.u.).
For the sequence “ACTGACATTCCCAACATCATCGCCACATGCAAACGGCTAGCGGAGTCACCTAGTGCAG”, the binding signal is 8640 fluorescence intensity (a.u.).
In the case of “GCCGTTTCCATTCTACCCAAACACCACGCTGGATCGCCTCCGGAGTCACCTAGTGCAG”, the binding signal was 12500 fluorescence intensity (a.u.).
The value for “TTGACTTTTTCTCACATGTTTGACCATTCGTCTTATTCAACGGAGTCACCTAGTGCAG” was 15400 fluorescence intensity (a.u.).
“CACTCTCTCCTCGAACGCCTCACCCCGCCCACGCCTGCACCGGAGTCACCTAGTGCAG”: the binding signal is 8450 fluorescence intensity (a.u.).
The value for “GCCGCCCATCGATCTGCAGCTTCGCCCGCGCCGCCGGCGACGGAGTCACCTAGTGCAG” was 10300 fluorescence intensity (a.u.); that for “AGCCAATCCGCCCAACCAGATGCCCTACCCGGCGGCCTCTCGGAGTCACCTAGTGCAG” was 10500 fluorescence intensity (a.u.).
The figure for “TGTTTTTTGGCATTGATTTTAATCTTTTCTTGGGGTCACACGGAGTCACCTAGTGCAG” is 8300 fluorescence intensity (a.u.); for “ACCAGCACAACAAATTCGATCTCTTGAAGCTAGCTTTCTCCGGAGTCACCTAGTGCAG” it is 8230 fluorescence intensity (a.u.); for “GATGGATGTTTTTCTTTTTTTCTCAGATTTTTTCTAATTTCGGAGTCACCTAGTGCAG” it is 9140 fluorescence intensity (a.u.).
The value for “AAGCCGCCGTCGCGTATCTCATCTCGTGTCATCGAGTGGTCGGAGTCACCTAGTGCAG” was 10300 fluorescence intensity (a.u.); that for “TTCTGTTCATGCCATAAACCATGTACCGCATATACTTTAGCGGAGTCACCTAGTGCAG” was 10200 fluorescence intensity (a.u.).
For the sequence “CTTTGTCATGCACGGCTTCACTTACTCTGCAATATCATGTCGGAGTCACCTAGTGCAG”, the binding signal was 9650 fluorescence intensity (a.u.).
The value for “CAACCACCAACTCCACACGCTGTTCATGTCACGACGGTTTCGGAGTCACCTAGTGCAG” was 11600 fluorescence intensity (a.u.); that for “CCTGCTGGAGGTGGAGGTGGAGGTGGAGGTGGAGGGTATACGGAGTCACCTAGTGCAG” was 11700 fluorescence intensity (a.u.).
On to “TTAAGTTTTTGCTTGCACTGTTTAACCACTCGTTTCATTCCGGAGTCACCTAGTGCAG”, for which the binding signal is 12400 fluorescence intensity (a.u.).
The value for “CCGTTTCGTCTGTCCCTGGACACATGTCGCGTCCTGATTGCGGAGTCACCTAGTGCAG” was 8030 fluorescence intensity (a.u.); that for “CCCCACCCACCGCCAGCAAAATTTTTAATCCTGAGTAAATCGGAGTCACCTAGTGCAG” was 8360 fluorescence intensity (a.u.); that for “GAGTTAAGCAGATCTCCCAGGCCTCGTGTTTTCTGTCAACCGGAGTCACCTAGTGCAG” was 9780 fluorescence intensity (a.u.).
The value for “CCCAACCAAAGTCAACGCCAAAAGCTGCGATTTTTTTTTCCGGAGTCACCTAGTGCAG” was 10400 fluorescence intensity (a.u.); that for “TCCTACCTACAGCTATAGCTGCGTGCCGGGGTTGGGGCTGCGGAGTCACCTAGTGCAG” was 8750 fluorescence intensity (a.u.).
The figure for “ACACAGTAACACGTAAGGCCTCCTTGTATGGGCCTCAATCCGGAGTCACCTAGTGCAG” is 9100 fluorescence intensity (a.u.).
With “GAGGGTTAGAATTAGAAGTTGTTCTTTCAGAAGGTGGGAACGGAGTCACCTAGTGCAG”, the binding signal was 8180 fluorescence intensity (a.u.).
For “GCCTTACCAATTTTTGTCAATGTCAAATTTGGCAACTTTTCGGAGTCACCTAGTGCAG”, the binding signal is 8050 fluorescence intensity (a.u.).
With “ACGTGGCGCAATTTTTTCCCTTTTGTTTGTTTTCATTCGGCGGAGTCACCTAGTGCAG”, the binding signal is 8440 fluorescence intensity (a.u.).
The value for “GACACGCTGATCCCGTTCGTCACCATAAGCTTGTCTCATACGGAGTCACCTAGTGCAG” was 10700 fluorescence intensity (a.u.); that for “CCCATCAAACCATGGGCCCCACACGGCAGCAGCCCATCTCCGGAGTCACCTAGTGCAG” was 8150 fluorescence intensity (a.u.).
The figure for “TCATATCGTTGTGCTAGTATCCGGCGCCGCTTCCGTTCATCGGAGTCACCTAGTGCAG” is 11400 fluorescence intensity (a.u.).
The figure for “CTTACACCTTCATCTTCAACTATATTCTTGGTTTCTTCATCGGAGTCACCTAGTGCAG” is 10900 fluorescence intensity (a.u.); for “CTCTTATCTTTTTTCCAACTGCATACCGGCCAAGAGAAGACGGAGTCACCTAGTGCAG” it is 8300 fluorescence intensity (a.u.); for “AATTGCCTTCGTCTGCGCCCCGCGGGCTCTCGTCCCAACCCGGAGTCACCTAGTGCAG” it is 8840 fluorescence intensity (a.u.).
As for “ATCATCTTGCGAATCAAGCATACACACAAACACTTCATTTCGGAGTCACCTAGTGCAG”, the binding signal was 8050 fluorescence intensity (a.u.).

For the origin of these results see article PMC7819943, “Rice protein-binding microarrays: a tool to detect cis-acting elements near promoter regions in rice”.
